The series is described as follows: solid-phase peptide synthesis. As to conditions: whole synthesis, capillary zone electrophoresis.

For “IleCysProCysTyrArgLeuArgTyr-NH2,Cyclic(2,2'), (4,4')-Disulfide Dimer and IleCysProCysTyrArgLeuArgTyr-NH2,Cyclic(2,4'),(4,2')-Disulfide Dimer”, the “final purity (method not given)” value is 100% pure.

Values taken from US5670482A (Glaxo Wellcome Inc., priority 1992, dated 1997).
